Results as given in patent publication US12329158B2, “Large-scale methods of uniformly coating packaging surfaces with a volatile antimicrobial to preserve food freshness” (AGROFRESH INC., priority 2013, dated 2025).
The source gives many values for each of these; only a part stands here.

Experiments:
Format in all cases: in vivo
[1] = test system: Botrytis cinerea; experiment: In-clamshell Compound A applied by painting, spraying or sublimation; strawberries (Example 1); details: 5 mg/clamshell
Experimental: An in vivo assay was used to evaluate the ability of Compound A to volatilize from a clamshell chamber and control pathogenic infection when applied by various techniques. Multiple empty 1-lb PET clamshells (ProducePackaging.com, #036QT) were placed inside triplicate air-tight 36 L chamber (Fisher Scientific, Catalogue #08-642-23C) fitted with a bulkhead septum port (Swagelok, SS-401-61, Solon, OH).
Compound A headspace was permitted to equilibrate overnight at 21° C.
(§1) Five milligrams of Compound A was dissolved in 1 ml of ethanol prior to being uniformly administered to the interior of the clamshell by painting or spraying, and then dried for 5 minutes. After coating the clamshells with Compound A using various application techniques (i.e., sublimation, spraying, or painting), eight ethanol-washed strawberries were placed in the clamshell with stem end facing downwards. Each strawberry fruit was wounded using a T15 screwdriver tip to a uniform depth of eight mm (8 mm). […] Uninoculated strawberries were removed from their commercial package, and directly transferred into treated clamshells without any washing or inoculation steps.
(§2) Treated clamshells lids were closed, and then placed at 1° C. for an initial time period of 5 days. Clamshells were then removed from low temperature, and held for a second time period of 6 days at room temperature where the point of inoculation on the strawberry fruits was assessed for indication of disease incidence reported as a percentage (%). Severity of disease incidence was also reported.

[2] = test system: Botrytis cinerea; experiment: Dose response, sprayed clamshells; strawberries (Example 4); details: Uninoculated Fruit, spraying
Experimental: as §1, §2
This in vivo assay was used to evaluate the ability of different concentrations of Compound A to volatilize from clamshell in order to control or inhibit fruit infection by pathogenic microorganism, Botrytis cinerea. This experiment was conducted exactly as described in Example 1, with a few exceptions. After equilibrating the clamshell overnight at 21° C., Compound A was administered to the clamshells by spraying only. Compound A was sprayed onto the surface of the clamshells at a final treatment rate of 5 mg/clamshell or 1 mg/clamshell. The clamshells were then permitted to dry for 5 minutes. Strawberries were inoculated with Botrytis cinerea, placed within the clamshells for the initial time period (i.e., 5 days), and assessed for disease incidence and severity over the second time period (i.e., 6 days) as described in Example 1.

[3] = test system: Botrytis cinerea; experiment: Painting on base, lid or base and lid of clamshells; strawberries (Example 6)
Experimental: as §1, §2
This in vivo assay was used to evaluate the ability of Compound A to volatilize from different locations of a clamshell (i.e., the base and/or the lid of the clamshell) in order to control or inhibit fruit infection by pathogenic microorganism, Botrytis cinerea. This experiment was conducted exactly as described in Example 1, with a few exceptions. Compound A was administered to the clamshell by painting only. 5 mg of Compound A was painted onto the surface of the base of the clamshell or the lid of the clamshell (i.e., 5 mg/clamshell treatment rate). 2.5 mg of Compound A was painted onto the base and the lid of the clamshell (for a total of 5 mg/clamshell treatment rate). The clamshell was then permitted to dry for 5 minutes. Strawberries were inoculated with Botrytis cinerea, placed within the clamshell for an initial time period of 5 days, and assessed for disease incidence and severity over a second time period of 7 days as described in Example 1.

OB1OCc2cc(F)ccc21 [Compound A, 5-fluoro-1,3-dihydro-1-hydroxy-2,1-benzoxaborole]
Gray Mold Severity (0-4) ([1]; Inoculated Fruit, Paint, Day 0): 0.0
Gray Mold Severity (0-4) ([1]; Inoculated Fruit, Paint, Day 1): 0.0
Gray Mold Severity (0-4) ([1]; Inoculated Fruit, Paint, Day 2): 0.0
Gray Mold Severity (0-4) ([1]; Inoculated Fruit, Paint, Day 3): 0.0
Gray Mold Severity (0-4) ([1]; Inoculated Fruit, Paint, Day 4): 0.0
Gray Mold Severity (0-4) ([1]; Inoculated Fruit, Paint, Day 5): 0.0
Gray Mold Severity (0-4) ([1]; Inoculated Fruit, Paint, Day 6): 0.0
Gray Mold Severity (0-4) ([1]; Inoculated Fruit, Spray, Day 0): 0.0
Gray Mold Severity (0-4) ([1]; Inoculated Fruit, Spray, Day 1): 0.0
Gray Mold Severity (0-4) ([1]; Inoculated Fruit, Spray, Day 2): 0.0
Gray Mold Severity (0-4) ([1]; Inoculated Fruit, Spray, Day 3): 0.0
Gray Mold Severity (0-4) ([1]; Inoculated Fruit, Spray, Day 4): 0.0
Gray Mold Severity (0-4) ([1]; Inoculated Fruit, Spray, Day 5): 0.0
Gray Mold Severity (0-4) ([1]; Inoculated Fruit, Spray, Day 6): 0.0
Gray Mold Severity (0-4) ([1]; Inoculated Fruit, Sublimation, Day 0): 0.0
Gray Mold Severity (0-4) ([1]; Inoculated Fruit, Sublimation, Day 1): 0.0
Gray Mold Severity (0-4) ([1]; Inoculated Fruit, Sublimation, Day 2): 0.0
Gray Mold Severity (0-4) ([1]; Inoculated Fruit, Sublimation, Day 3): 0.0
Gray Mold Severity (0-4) ([1]; Inoculated Fruit, Sublimation, Day 4): 0.0
Gray Mold Severity (0-4) ([1]; Inoculated Fruit, Sublimation, Day 5): 0.0
Gray Mold Severity (0-4) ([1]; Inoculated Fruit, Sublimation, Day 6): 0.0
Gray Mold Severity (0-4) ([1]; Uninoculated Fruit, Paint, Day 0): 0.0
Gray Mold Severity (0-4) ([1]; Uninoculated Fruit, Paint, Day 1): 0.1
Gray Mold Severity (0-4) ([1]; Uninoculated Fruit, Paint, Day 2): 0.5
Gray Mold Severity (0-4) ([1]; Uninoculated Fruit, Paint, Day 3): 0.8
Gray Mold Severity (0-4) ([1]; Uninoculated Fruit, Paint, Day 4): 0.9
Gray Mold Severity (0-4) ([1]; Uninoculated Fruit, Paint, Day 5): 1.1
Gray Mold Severity (0-4) ([1]; Uninoculated Fruit, Paint, Day 6): 1.1
Gray Mold Severity (0-4) ([1]; Uninoculated Fruit, Spray, Day 0): 0.0
Gray Mold Severity (0-4) ([1]; Uninoculated Fruit, Spray, Day 1): 0.2
Gray Mold Severity (0-4) ([1]; Uninoculated Fruit, Spray, Day 2): 0.3
Gray Mold Severity (0-4) ([1]; Uninoculated Fruit, Spray, Day 3): 0.5
Gray Mold Severity (0-4) ([1]; Uninoculated Fruit, Spray, Day 4): 0.7
Gray Mold Severity (0-4) ([1]; Uninoculated Fruit, Spray, Day 5): 1.2
Gray Mold Severity (0-4) ([1]; Uninoculated Fruit, Spray, Day 6): 1.3
Gray Mold Severity (0-4) ([1]; Uninoculated Fruit, Sublimation, Day 0): 0.0
Gray Mold Severity (0-4) ([1]; Uninoculated Fruit, Sublimation, Day 1): 0.1
Gray Mold Severity (0-4) ([1]; Uninoculated Fruit, Sublimation, Day 2): 0.3
Gray Mold Severity (0-4) ([1]; Uninoculated Fruit, Sublimation, Day 3): 0.7
Gray Mold Severity (0-4) ([1]; Uninoculated Fruit, Sublimation, Day 4): 0.9
Gray Mold Severity (0-4) ([1]; Uninoculated Fruit, Sublimation, Day 5): 1.1
Gray Mold Severity (0-4) ([1]; Uninoculated Fruit, Sublimation, Day 6): 1.3
Gray Mold Severity (0-4) ([2]; 1 mg/clamshell, Day 0): 0.0
Gray Mold Severity (0-4) ([2]; 1 mg/clamshell, Day 1): 0.5
Gray Mold Severity (0-4) ([2]; 1 mg/clamshell, Day 2): 1.8
Gray Mold Severity (0-4) ([2]; 1 mg/clamshell, Day 3): 3.6
Gray Mold Severity (0-4) ([2]; 1 mg/clamshell, Day 4): 4.0
Gray Mold Severity (0-4) ([2]; 1 mg/clamshell, Day 5): 4.0
Gray Mold Severity (0-4) ([2]; 1 mg/clamshell, Day 6): 4.0
Gray Mold Severity (0-4) ([2]; 5 mg/clamshell, Day 3): 0.5
Gray Mold Severity (0-4) ([2]; 5 mg/clamshell, Day 4): 1.0
Gray Mold Severity (0-4) ([2]; 5 mg/clamshell, Day 5): 1.4
Gray Mold Incidence (%) ([3]; Inoculated Fruit, painted on Base, 5 mg, Day 0): 0.0%
Gray Mold Incidence (%) ([3]; Inoculated Fruit, painted on Base, 5 mg, Day 1): 0.0%
Gray Mold Incidence (%) ([3]; Inoculated Fruit, painted on Base, 5 mg, Day 2): 12.5%
Gray Mold Incidence (%) ([3]; Inoculated Fruit, painted on Base, 5 mg, Day 3): 12.5%
Gray Mold Incidence (%) ([3]; Inoculated Fruit, painted on Base, 5 mg, Day 4): 0.0%
Gray Mold Incidence (%) ([3]; Inoculated Fruit, painted on Base, 5 mg, Day 5): 0.0%
Gray Mold Incidence (%) ([3]; Inoculated Fruit, painted on Base, 5 mg, Day 6): 18.8%
Gray Mold Incidence (%) ([3]; Inoculated Fruit, painted on Lid, 5 mg, Day 0): 0.0%
Gray Mold Incidence (%) ([3]; Inoculated Fruit, painted on Lid, 5 mg, Day 1): 0.0%
Gray Mold Incidence (%) ([3]; Inoculated Fruit, painted on Lid, 5 mg, Day 2): 0.0%
Gray Mold Incidence (%) ([3]; Inoculated Fruit, painted on Lid, 5 mg, Day 3): 0.0%
Gray Mold Incidence (%) ([3]; Inoculated Fruit, painted on Lid, 5 mg, Day 4): 0.0%
Gray Mold Incidence (%) ([3]; Inoculated Fruit, painted on Lid, 5 mg, Day 5): 0.0%
Gray Mold Incidence (%) ([3]; Inoculated Fruit, painted on Lid, 5 mg, Day 6): 0.0%
Gray Mold Incidence (%) ([3]; Inoculated Fruit, painted on Lid, 5 mg, Day 7): 0.0%
Gray Mold Incidence (%) ([3]; Uninoculated Fruit, painted on Base and Lid, 2.5/2.5 mg, Day 0): 0.0%
Gray Mold Incidence (%) ([3]; Uninoculated Fruit, painted on Base and Lid, 2.5/2.5 mg, Day 1): 0.0%
Gray Mold Incidence (%) ([3]; Uninoculated Fruit, painted on Base and Lid, 2.5/2.5 mg, Day 2): 0.0%
Gray Mold Incidence (%) ([3]; Uninoculated Fruit, painted on Base and Lid, 2.5/2.5 mg, Day 3): 1.1%
Gray Mold Incidence (%) ([3]; Uninoculated Fruit, painted on Base and Lid, 2.5/2.5 mg, Day 4): 7.8%
Gray Mold Incidence (%) ([3]; Uninoculated Fruit, painted on Base and Lid, 2.5/2.5 mg, Day 5): 23.3%
Gray Mold Incidence (%) ([3]; Uninoculated Fruit, painted on Base and Lid, 2.5/2.5 mg, Day 6): 33.3%
Gray Mold Incidence (%) ([3]; Uninoculated Fruit, painted on Base and Lid, 2.5/2.5 mg, Day 7): 52.2%
Gray Mold Incidence (%) ([3]; Uninoculated Fruit, painted on Base, 5 mg, Day 5): 10.0%
Gray Mold Incidence (%) ([3]; Uninoculated Fruit, painted on Base, 5 mg, Day 6): 26.7%
Gray Mold Incidence (%) ([3]; Uninoculated Fruit, painted on Base, 5 mg, Day 7): 41.1%
Gray Mold Incidence (%) ([3]; Uninoculated Fruit, painted on Lid, 5 mg, Day 0): 0.0%
Gray Mold Incidence (%) ([3]; Uninoculated Fruit, painted on Lid, 5 mg, Day 1): 0.0%
Gray Mold Incidence (%) ([3]; Uninoculated Fruit, painted on Lid, 5 mg, Day 2): 0.0%
Gray Mold Incidence (%) ([3]; Uninoculated Fruit, painted on Lid, 5 mg, Day 3): 1.1%
Gray Mold Incidence (%) ([3]; Uninoculated Fruit, painted on Lid, 5 mg, Day 4): 18.9%
Gray Mold Incidence (%) ([3]; Uninoculated Fruit, painted on Lid, 5 mg, Day 5): 27.8%
Gray Mold Incidence (%) ([3]; Uninoculated Fruit, painted on Lid, 5 mg, Day 6): 45.6%
Gray Mold Incidence (%) ([3]; Uninoculated Fruit, painted on Lid, 5 mg, Day 7): 64.4%
